Measured values reported in patent publication US4022962A, “Carbamylguanidine antimicrobial compounds” (Cooper Laboratories, Inc., priority 1975, dated 1977).
For at least one compound, name, drawing or mass did not settle the structure.

Test: adsorption to extracted enamel tooth surfaces, spectrophotometric
Design: species or system human
Experimental: Absorption of the compounds of this invention to extracted, non-carious, unprepared enamel tooth surfaces was investigated by the following procedure. Extracted human teeth, having their roots coated with wax so that only the enamel crowns were exposed, were immersed in 10 ml portions of stirred aqueous solutions of the test compound having a concentration of 10 micrograms/milliliter. After 10 minutes, the teeth were removed and the amount of test compound removed from the solution by adsorption was determined spectrophotometrically. […] The adsorption of the compounds of this invention was compared with that of chlorhexidine and found to be substantially greater. […] After no more of the test compounds was removed from the solution by adsorption, the teeth were immersed in fresh portions of the solutions.

Structure (SMILES) | total adsorption relative to chlorhexidine, four successive fresh portions (four successive fresh portions, about 4 hours) | adsorption relative to chlorhexidine acetate, over about ten minutes (10 micrograms/milliliter, about ten minutes) | further adsorption from fresh portions of solution (after no more was removed, fresh portions of the solutions)
N=C(NCCCCCCNC(=N)NC(=O)Nc1ccc(Cl)cc1)NC(=O)Nc1ccc(Cl)cc1 [1,6-Bis-(p-chlorophenylcarbamylguanidino)hexane] | about seven times as much | – | –
N=C(NCCCCCCNC(=N)NC(=O)Nc1ccc(Cl)cc1)NC(=O)Nc1ccc(Cl)cc1 [1,6-bis(4-chlorophenylcarbamylguanidino)hexane diacetate] | – | about twice as great as that of chlorhexidine acetate | continued to be adsorbed to the tooth surface
